Consider one molecule from publication PMC3420917, “A Combinatorial Amino Acid Code for RNA Recognition by Pentatricopeptide Repeat Proteins” (PLoS Genetics, 2012).

Results are given in words; binding and its absence hold for the method and conditions named.

The experiment has as its target Recombinant PPR10 (maize) (UniProt B8Y6I0). Put plainly: condition: only with 3 µM 17-nt minimal RNA ligand (equimolar with 3 µM rPPR10); AUC; sedimentation velocity; rPPR10 at 3 µM with its 17-nt minimal RNA ligand at 3 µM (equimolar, saturating); 20°C, 50,000 rpm, interference optics; 250 mM NaCl, 50 mM Tris-HCl pH 7.5, 5 mM ß-mercaptoethanol; both purified.

B1: Recombinant PPR10 (natural protein, maize, UniProt B8Y6I0 96-786, looked up)
chain: ASRRDELLRADITSLLKALELSGHWEWALALLRWAGKEGAADASALEMVVRALGREGQHDAVCALLDETPLPPGSRLDVRAYTTVLHALSRAGRYERALELFAELRRQGVAPTLVTYNVVLDVYGRMGRSWPRIVALLDEMRAAGVEPDGFTASTVIAACCRDGLVDEAVAFFEDLKARGHAPCVVTYNALLQVFGKAGNYTEALRVLGEMEQNGCQPDAVTYNELAGTYARAGFFEEAARCLDTMASKGLLPNAFTYNTVMTAYGNVGKVDEALALFDQMKKTGFVPNVNTYNLVLGMLGKKSRFTVMLEMLGEMSRSGCTPNRVTWNTMLAVCGKRGMEDYVTRVLEGMRSCGVELSRDTYNTLIAAYGRCGSRTNAFKMYNEMTSAGFTPCITTYNALLNVLSRQGDWSTAQSIVSKMRTKGFKPNEQSYSLLLQCYAKGGNVAGIAAIENEVYGSGAVFPSWVILRTLVIANFKCRRLDGMETAFQEVKARGYNPDLVIFNSMLSIYAKNGMYSKATEVFDSIKRSGLSPDLITYNSLMDMYAKCSESWEAEKILNQLKCSQTMKPDVVSYNTVINGFCKQGLVKEAQRVLSEMVADGMAPCAVTYHTLVGGYSSLEMFSEAREVIGYMVQHGLKPMELTYRRVVESYCRAKRFEEARGFLSEVSETDLDFDKKALEAYIEDAQFGR
notes: PPR10, maize chloroplast pentatricopeptide repeat protein (19 PPR motifs); mature PPR10 lacking the plastid targeting peptide; monomeric molecular weight of rPPR10 printed as 82.6 kDa; also called rPPR10
On to B1, for which the binding entry is on record as “no binding”.
